# Measurements reported in patent US20200023081A1, “SELF-ASSEMBLING CYCLOPEPTIDE-DYE COMPOUNDS, FORMULATIONS THEREOF, AND USES THEREOF” (The Board of Trustees of the Leland Stanford Junior …, priority 2018, published 2020).
# Not every detail of the peptide structures is certain; ends, links or a residue may be inferred.
# Tests used:
# [1] = tested on: U87MG tumor; test: Subcutaneous U87MG tumor imaging, IV vs ID
# [2] = tested on: blood vessels; test: Blood vessel imaging (brain, hind limb); type: in vivo, mice
# Procedure: FIGS. 4A-4W show blood vessel, lymphatic vessel, and lymph node imaging with CH-RGD (NIR-II), ICG and IR800-RGD (NIR-I). 15 nmol CH-RGD, CH-PEG, ICG, IR800-RGD were IV injected into hairless C57BL/6 mice (FIGS. 4A-4C) or nude mice (FIGS. 4D and 4E). NIR-II (FIGS. 4A, 4B, 4D, 1000 ms, 1350LP) and NIR-I imaging (FIGS. 4C, 4E, 200 ms, 814-851BP) was taken 10 min post-injection. FIGS. 4A-4C, C57BL/6 mice brain vessel images.
# (§1) Teen-week old BALB/c mice (n=3 male and 3 female per group) were obtained from Charles River for bone imaging studies, teen-week old C57BL/6 female mice (n=4 per group) were obtained from Charles River for brain vessel studies, teen-week old NU/NU female mice (n=4 per group) were obtained from Charles River for leg vessel studies, teen-week old BALB/c male mice (n=4 per group) were obtained from Charles River and housed for another 42 weeks for lymph node and lymphatic vessel studies, eight-week old female NU/NU mice (n=3 per group) were obtained from Charles River for tumor targeting studies. Before vessel or tumor imaging, all mice were anaesthetized in a rodent anesthesia machine with 2 l min^−1 O2 gas mixed with 3% Isoflurane. Tail vein injection of contrast agents were carried with a catheter and synchronized with a camera that started continuous image acquisition simultaneously. […]
# [3] = tested on: Orthotopic glioblastomas (U87MG); test: Orthotopic U87MG glioblastoma imaging; type: in vivo, nude mice
# [4] = Zeta potential; type: physicochemical
# [5] = tested on: bone; set-up: species or system BALB/c mice; conditions: mouse, in vivo
# Procedure: FIG. 3A illustrates a supine position, top CH-RGD, bottom CH-RAD 3 h post-injection. 22 nmol CH-RGD or CH-RAD was intravenously injected into 20-25 g hairless BALB/c mice (n=6, 3 males, 3 female). NIR-II imaging (200 ms, 1150LP, 808 nm 140 mW/cm^2 laser excitation) was taken at different time points post-injection (post-injection).
# as §1, with “simultaneously. The IV injected dose was a 200 μL bolus in a 1×PBS solution at specified concentrations.” for “simultaneously.”
# [6] = In vitro serum stability in FBS; type: in vitro ADME; conditions: 37° C.
# Procedure: Fetal Bovine Serum (FBS, Gibco® Catalog #26140) was used to dilute the CH-RGD PBS stock solution into 2 mL, 10 μM mixture solution. And the mixture was incubated at 37° C. in a cell culture incubator for one month. At each designated time point, 200 μL serum mixture were collected for DLS and TEM analysis.
# [7] = pH-dependent self-assembly, DLS and TEM; type: physicochemical
# [8] = NIR-II fluorescence quantum yield; type: physicochemical
# [9] = tested on: orthotopic bone tumors (143B); test: Orthotopic 143B osteosarcoma imaging; type: in vivo, nude mice; conditions: ID injection, 4 days post-injection
# Procedure: Eight-week old female nude mice (Charles River) were anaesthetized using 2.0% isoflurane and positioned on a heating pad (42° C.). The shoulder was cleaned with 70% ethanol and betadine. 1×10^6 143B cells were first injected subcutaneously into the shoulder mice and the tumor allowed to grow to a diameter 5-8 mm solid tumor. The tumors were surgical resected and cut into 1×1×1 mm^3 pieces.
# The right tibia of 8-week old NU/NU mice was opened in the central part by drilling with a dental drill for a 0.5 mm diameter hole. One tumor fragment was insert into the hole and contact with the bone marrow. Then the surgical wound was sutured. Mice were observed daily for tumor growth. Palpation, micro CT and 3T MRI were used to monitor the tumor growth. The mouse was used for imaging experiment, when the tumor size had reached to 3-5 mm diameter.
# [10] = NIR-II fluorescence comparison under long-pass filters; type: physicochemical; conditions: all tested long-pass filters (1000-1350 nm)
# [11] = tested on: lymphatic vessels and lymph nodes; test: Lymphatic vessel and lymph node imaging after ID injection; type: in vivo, BALB/c mice; conditions: for FWHM, lateral iliac lymph node / FWHM, subiliac lymph node: Gaussian fitting
# Procedure: FIGS. 4F and 4G show cross-sectional fluorescence intensity profiles taken along red-dashed lines in (FIGS. 4D and 4E). Gaussian fits to the profiles are shown in red dashed curves. Vessel width measurements were taken from Gaussian curves. Lymphatic vessels and lymph node imaging: 3 nmol CH-RGD (FIGS. 4H-4J, 4Q, 4Y), ICG (FIGS. 4K and 4R) and IR800-RGD(s) ID into BALB/c mice (n=4 per probe). NIR-II (50 ms, 1100LP)/NIR-I (100 ms, 814-851BP) imaging was taken 1 h (FIGS. 4H-4J)/(FIG. 4K), 5 h (FIG. 4Q)/FIGS. 4R and 4S), 30 d (FIG. 4U) post ID, injection site (FIG. 4I).
# IR800-RGD (3 nmol) was injected intradermally into hair-removed BALB/c mouse (n=4 per probe, male, 1 years old, weight approximately 42 g) tail base. NIR-1 imaging (100 ms, 814 approximately 851 bandpass) was taken 1 h, 3 h, 5 h post-injection. Fluorescent signal appears in mice bladder from 1 h post-injection.
# Teen-week old BALB/c mice (n=3 male and 3 female per group) were obtained from Charles River for bone imaging studies, teen-week old C57BL/6 female mice (n=4 per group) were obtained from Charles River for brain vessel studies, teen-week old NU/NU female mice (n=4 per group) were obtained from Charles River for leg vessel studies, teen-week old BALB/c male mice (n=4 per group) were obtained from Charles River and housed for another 42 weeks for lymph node and lymphatic vessel studies, eight-week old female NU/NU mice (n=3 per group) were obtained from Charles River for tumor targeting studies. Before vessel or tumor imaging, all mice were anaesthetized in a rodent anesthesia machine with 2 l min^−1 O2 gas mixed with 3% Isoflurane. Tail vein injection of contrast agents were carried with a catheter and synchronized with a camera that started continuous image acquisition simultaneously. The IV injected dose was a 200 μL bolus in a 1×PBS solution at specified concentrations. The ID injected dose was a 50 μL bolus in a 1×PBS solution at specified concentrations. During the time course of imaging the mouse was kept anaesthetized by a nose cone delivering 2 l min^−1 02 gas mixed with 3% isoflurane. The sample sizes of mice were selected based on previously reported studies. Mice were randomly selected from cages for all experiments. No blinding was performed.
# (§2) Images were processed with ImageJ.
# [12] = tested on: U87MG tumor; test: Double subcutaneous U87MG tumor imaging; type: in vivo, nude mice
# Procedure: FIG. 5A is a color photograph of a nude mouse with double xenograft brain tumor (U87MG) located on the left (approximately 1 mm) and right ([…]) shoulder. Intravenous injection of CH-RGD 10 nmol into the double tumor nude mice (n=3). NIR-II imaging (50 ms, 1000LP) at 3 days post-injection was taken at prone (FIG. 5B), right (FIG. 5C) and left (FIG. 5D) lateral decubitus.
# The first right shoulder big tumor implantation is the same as above description. The difference is allowed the tumor grow for 2 to 3 weeks. When the right tumor diameter (ø) was between about 1 to 2 mm, 1×10^6 U87MG cells were injected into the mice left shoulder. After about 1 to 2 weeks, when the left shoulder tumor had grown to a diameter of about 1 mm and the right shoulder tumor was approximately 6 mm in diameter, the mouse was used for imaging.
# as §2
# [13] = 5 h after ID injection, listed as CH-RGD NPs
compound,measurement,setting,value
"N=C(N)NCCC[C@@H]1NC(=O)[C@H](CCCCNC(=O)CCc2ccc(N(c3ccc(CCC(=O)O)cc3)c3ccc(-c4c5c(c(-c6ccc(N(c7ccc(CCC(=O)O)cc7)c7ccc(CCC(=O)O)cc7)cc6)c6nsnc46)N=S=N5)cc3)cc2)NC(=O)[C@@H](Cc2ccc(O)cc2)NC(=O)[C@H](CC(=O)O)NC(=O)CNC1=O [CH-RGD, CH-c(RGDyk)]",TBR,"[1]; 5 nmol, IV injection, peak",approximately 7
same,TBR,"[1]; ID injection, 4 days post-injection, listed as CH-RGD NPs",approximately 15
same,mean tumor fluorescent intensity,[1]; IV administration,40 k
same,ID versus IV injection comparison,"[1]; mouse, in vivo, iv",better TBR through ID injection
same,width of brain blood vessels detected,"[2]; C57BL/6 mice, 10 min post-injection",less than 100 μm
same,width of leg capillaries identified,[2]; nude mice hind limb,less than 200 μm
same,TBR at peak glioblastoma fluorescence signal,"[3]; 3 days post IV injection, in vivo",approximately 8
same,"TBR, ex-vivo brain imaging",[3]; ex vivo,approximately 12
same,zeta potential,[4]; pH 6.5,−22.5±1.2
same,zeta potential,[4]; pH 7.4,−36.4±1.7
same,brown adipose tissue (BAT) SBR,[5],approximately 5
same,NP size after one month in FBS,[6],less than 10 nm
same,morphology,[7]; beyond pH 6.5,irregular precipitates
same,fluorescence increase factor on aggregation,"[7]; beyond pH 6.5, irregular precipitates",2
same,ΔpH of sharp morphology response,[7]; from pH 7 to 6.8,approximately 0.2
same,morphology,"[7]; pH 6.5, 7.4, and 8.0 buffers",Self-assembled nanospheres
same,aggregate size,[7]; pH 6.5-6.8,approximately 500 nm
same,size of self-assembled nanospheres,[7]; physiological pH,approximately 80 nm
same,NP size,[7]; slightly acidic solutions (lower than 7.0),greater than 500 nm
same,quantum yield (QY),[8]; in water,0.17%
same,quantum yield (QY),[8]; irregular precipitates beyond pH 6.5,approximately 0.34%
same,highest TBR,[9],approximately 12
same,fluorescence intensity comparison,[10],surpass ICG and IR800-RGD in fluorescence intensity
same,"SBR, lateral iliac lymph node",[11]; 5 h after ID injection,approximately 7.5
same,"SBR, subiliac lymph node",[11]; 5 h after ID injection,approximately 11
same,"FWHM, lateral iliac lymph node",[11]; 5 h after ID injection,2.645 mm
same,"FWHM, subiliac lymph node",[11]; 5 h after ID injection,1.827 mm
same,"FWHM, lateral iliac lymph node",[11]; [13],2.6 mm
same,"FWHM, subiliac lymph node",[11]; [13],1.8 mm
same,"SBR, lymph node at greatest fluorescence intensity",[11]; 4 days post-injection,21.3 ± 5.0
same,"SBR, subiliac lymph node",[11]; 30 d post-injection,16.8±2.6
same,width of lymphatic vessels detected,[11]; ID injection,67.5 μm
same,"highest TBR, small tumor",[12]; 3 days post-injection,approximately 6
same,"TBR, larger tumor",[12]; 4 days post-injection,approximately 10
